Reference: patent US20130317045A1, “THIENOPYRIDINE AND THIENOPYRIMIDINE COMPOUNDS AND METHODS OF USE THEREOF” (AMBIT BIOSCIENCES CORPORATION, priority 2010, published 2013)
For at least one compound, name, drawing or mass did not settle the structure.

Tested on: distinct kinases tested excluding mutant variants, typically 359 or 386 kinases
Assay: Kinase selectivity score from competition binding panel
Conditions: compound at 10 μM; fraction of kinases with inhibition of 90% or greater
Description: Competition binding assays used herein were developed, validated and performed as described in Fabian et al., Nature Biotechnology 2005, 23,329-336. Kinases were produced as fusions to T7 phage (See, Fabian et al. or WO04/015142) or alternatively, the kinases were expressed in HEK-293 cells and subsequently tagged with DNA for PCR detection (See, WO08/005310). For the binding assays, streptavidin-coated magnetic beads were treated with biotinylated affinity ligands for 30 min at rt to generate affinity resins. The liganded beads were blocked with excess biotin and washed with blocking buffer (SeaBlock (Pierce), 1% BSA, 0.05% Tween 20, 1 mM DTT) to remove unbound ligand and to reduce non-specific binding. Binding reactions were assembled by combining kinase, liganded affinity beads, and test compounds in 1× binding buffer (20% SeaBlock, 0.17×PBS, 0.05% Tween 20, 6 mM DTT). […] The kinase concentration in the eluates was measured by quantitative PCR. […] Kds were determined using eleven serial threefold dilutions. A selectivity score, which is a quantitative measure of selectivity of a compound against a panel of enzymes, may be calculated for a compound by dividing the number of enzymes for which a compound meets a set criteria, (for example, a binding constant of 100 nM or less), by the total number of enzymes tested.

| Compound | S-Score: S(10) at 10 μM |
| --- | --- |
| Cc1cc(Nc2nc(C(C)(O)c3ccc(F)cc3)nc3ccsc23)n[nH]1 (racemic) [Example 18, (R,S)-1-(4-fluorophenyl)-1-(4-(5-methyl-1H-pyrazol-3-ylamino)thieno[3,2-d]pyrimidin-2-yl)ethanol] | A (A ≦ 0.3) |
| Cc1csc2c(Nc3cc[nH]n3)nc(C(O)c3ccc(F)cc3)nc12 (centres unmarked) [Example 25, (4-(1H-Pyrazol-3-ylamino)-7-methylthieno[3,2-d]pyrimidin-2-yl)(4-fluorophenyl)methanol] | A (A ≦ 0.3) |
